Test results taken from paper PMC9556364, “The effect of rifampin on the pharmacokinetics of famitinib in healthy subjects” (Cancer Chemotherapy and Pharmacology, 2022).
Where “and” joins values, the source holds several entries; their conditions need not be identical. Equal values may be shown once. Further values from the same series stand in other lists.

Experiment: Drug-drug interaction study: plasma pharmacokinetics of single oral famitinib 25 mg alone and with steady-state rifampin 600 mg once daily (LC-MS/MS, noncompartmental analysis)
Conditions: individual subjects

With `CCN(CC)CCN1CCc2[nH]c(/C=C3\C(=O)Nc4ccc(F)cc43)c(C)c2C1=O` [famitinib, Famitinib malate] the “Plasma concentration of famitinib, 1h” value (famitinib + rifampin period) was 7.776 ng/mL and 10.518 ng/mL and 3.966 ng/mL and 5.914 ng/mL and 0.552 ng/mL and 12.500 ng/mL and 4.647 ng/mL and 15.609 ng/mL and 11.994 ng/mL and 14.611 ng/mL and 1.812 ng/mL and 8.640 ng/mL and 6.535 ng/mL and 4.958 ng/mL and 9.293 ng/mL and 10.712 ng/mL and 10.116 ng/mL and 10.765 ng/mL and 19.718 ng/mL and 23.441 ng/mL, the “Plasma concentration of famitinib, 2h” value (famitinib + rifampin period) was 14.862 ng/mL and 14.759 ng/mL and 13.699 ng/mL and 7.465 ng/mL and 3.285 ng/mL and 15.622 ng/mL and 8.853 ng/mL and 13.667 ng/mL and 16.315 ng/mL and 19.826 ng/mL and 3.411 ng/mL and 8.191 ng/mL and 14.774 ng/mL and 9.501 ng/mL and 9.987 ng/mL and 13.531 ng/mL and 14.964 ng/mL and 16.225 ng/mL and 17.565 ng/mL and 16.778 ng/mL and the “Plasma concentration of famitinib, 3h” value (famitinib + rifampin period) was 15.259 ng/mL and 13.022 ng/mL and 15.073 ng/mL and 8.838 ng/mL and 7.065 ng/mL and 13.314 ng/mL and 12.114 ng/mL and 12.313 ng/mL and 14.027 ng/mL and 17.332 ng/mL and 5.397 ng/mL and 8.789 ng/mL and 12.359 ng/mL and 10.523 ng/mL and 14.634 ng/mL and 12.982 ng/mL and 13.901 ng/mL and 11.282 ng/mL and 16.888 ng/mL and 17.548 ng/mL. The “Plasma concentration of famitinib, 4h” value (famitinib + rifampin period) was 13.324 ng/mL and 12.820 ng/mL and 13.884 ng/mL and 9.347 ng/mL and 11.443 ng/mL and 17.240 ng/mL and 13.801 ng/mL and 12.155 ng/mL and 13.689 ng/mL and 13.608 ng/mL and 5.156 ng/mL and 10.280 ng/mL and 8.544 ng/mL and 10.239 ng/mL and 8.814 ng/mL and 8.742 ng/mL and 14.747 ng/mL and 10.966 ng/mL and 16.887 ng/mL and 14.176 ng/mL, the “Plasma concentration of famitinib, 5h” value (famitinib + rifampin period) was 18.925 ng/mL and 19.573 ng/mL and 16.893 ng/mL and 12.716 ng/mL and 20.885 ng/mL and 17.053 ng/mL and 17.122 ng/mL and 19.816 ng/mL and 21.770 ng/mL and 22.538 ng/mL and 14.295 ng/mL and 18.207 ng/mL and 26.542 ng/mL and 14.625 ng/mL and 15.665 ng/mL and 16.668 ng/mL and 25.975 ng/mL and 20.293 ng/mL and 21.859 ng/mL and 21.043 ng/mL and the “Plasma concentration of famitinib, 6h” value (famitinib + rifampin period) was 21.751 ng/mL and 20.560 ng/mL and 13.295 ng/mL and 23.440 ng/mL and 19.179 ng/mL and 21.570 ng/mL and 19.751 ng/mL and 21.278 ng/mL and 21.342 ng/mL and 14.830 ng/mL and 15.025 ng/mL and 23.245 ng/mL and 15.367 ng/mL and 16.932 ng/mL and 15.506 ng/mL and 24.692 ng/mL and 19.501 ng/mL and 19.687 ng/mL and 21.937 ng/mL. For the same molecule, the “Plasma concentration of famitinib, 8h” value (famitinib + rifampin period) was 22.088 ng/mL and 17.194 ng/mL and 18.589 ng/mL and 14.154 ng/mL and 20.082 ng/mL and 15.200 ng/mL and 18.343 ng/mL and 15.005 ng/mL and 15.815 ng/mL and 17.957 ng/mL and 11.990 ng/mL and 12.882 ng/mL and 23.009 ng/mL and 13.079 ng/mL and 14.206 ng/mL and 13.607 ng/mL and 24.906 ng/mL and 17.258 ng/mL and 19.760 ng/mL and 21.381 ng/mL, the “Plasma concentration of famitinib, 12h” value (famitinib + rifampin period) was 10.125 ng/mL and 18.760 ng/mL and 11.854 ng/mL and 13.476 ng/mL and 16.479 ng/mL and 15.079 ng/mL and 12.851 ng/mL and 14.643 ng/mL and 11.152 ng/mL and 14.007 ng/mL and 9.937 ng/mL and 14.329 ng/mL and 10.247 ng/mL and 12.360 ng/mL and 13.791 ng/mL and 9.364 ng/mL and 10.898 ng/mL and 16.015 ng/mL and 11.441 ng/mL and 13.329 ng/mL and the “Plasma concentration of famitinib, 24h” value (famitinib + rifampin period) was 5.201 ng/mL and 8.717 ng/mL and 4.514 ng/mL and 6.771 ng/mL and 7.192 ng/mL and 7.459 ng/mL and 6.286 ng/mL and 6.807 ng/mL and 5.753 ng/mL and 6.065 ng/mL and 5.532 ng/mL and 7.040 ng/mL and 4.040 ng/mL and 5.593 ng/mL and 6.278 ng/mL and 4.988 ng/mL and 4.842 ng/mL and 7.070 ng/mL and 5.582 ng/mL and 6.911 ng/mL. The “Plasma concentration of famitinib, 48h” value (famitinib + rifampin period) was 1.523 ng/mL and 2.168 ng/mL and 1.255 ng/mL and 1.960 ng/mL and 1.981 ng/mL and 2.284 ng/mL and 1.725 ng/mL and 2.061 ng/mL and 2.144 ng/mL and 1.686 ng/mL and 1.429 ng/mL and 2.362 ng/mL and 0.918 ng/mL and 1.614 ng/mL and 2.149 ng/mL and 1.809 ng/mL and 1.570 ng/mL and 2.769 ng/mL and 1.812 ng/mL and 2.173 ng/mL, the “Plasma concentration of famitinib, 72h” value (famitinib + rifampin period) was 0.642 ng/mL and 0.667 ng/mL and 0.311 ng/mL and 0.602 ng/mL and 0.641 ng/mL and 0.822 ng/mL and 0.539 ng/mL and 0.733 ng/mL and 0.767 ng/mL and 0.537 ng/mL and 0.432 ng/mL and 0.852 ng/mL and 0.220 ng/mL and 0.591 ng/mL and 0.800 ng/mL and 0.792 ng/mL and 0.514 ng/mL and 1.047 ng/mL and 0.712 ng/mL and 0.823 ng/mL and the “Plasma concentration of famitinib, 96h” value (famitinib + rifampin period) was 0.267 ng/mL and 0.261 ng/mL and 0.122 ng/mL and 0.206 ng/mL and 0.249 ng/mL and 0.328 ng/mL and 0.240 ng/mL and 0.269 ng/mL and 0.237 ng/mL and 0.168 ng/mL and 0.290 ng/mL and 0.089 ng/mL and 0.185 ng/mL and 0.302 ng/mL and 0.345 ng/mL and 0.219 ng/mL and 0.407 ng/mL and 0.325 ng/mL. For the same molecule, the “Plasma concentration of famitinib, 144h” value (famitinib + rifampin period, LLOQ 0.050) was 0.055 ng/mL and 0.057 ng/mL and 0.070 ng/mL and 0.053 ng/mL and 0.072 ng/mL and 0.050 ng/mL and 0.065 ng/mL and 0.082 ng/mL and 0.051 ng/mL and 0.083 ng/mL and 0.064 ng/mL, the “Plasma concentration of famitinib, 1h” value (famitinib alone period) was 10.847 ng/mL and 12.773 ng/mL and 10.295 ng/mL and 10.969 ng/mL and 13.903 ng/mL and 26.555 ng/mL and the “Plasma concentration of famitinib, 2h” value (famitinib alone period) was 19.362 ng/mL and 17.877 ng/mL and 15.400 ng/mL and 16.503 ng/mL and 18.719 ng/mL and 35.638 ng/mL. For the same molecule, the “Plasma concentration of famitinib, 3h” value (famitinib alone period) was 21.709 ng/mL and 20.490 ng/mL and 16.692 ng/mL and 20.933 ng/mL and 28.240 ng/mL and 37.318 ng/mL, the “Plasma concentration of famitinib, 4h” value (famitinib alone period) was 23.040 ng/mL and 20.547 ng/mL and 21.652 ng/mL and 19.902 ng/mL and 26.805 ng/mL and 37.143 ng/mL and the “Plasma concentration of famitinib, 5h” value (famitinib alone period) was 23.899 ng/mL and 31.460 ng/mL and 32.913 ng/mL and 34.455 ng/mL and 38.570 ng/mL and 47.417 ng/mL and 48.115 ng/mL. The “Plasma concentration of famitinib, 6h” value (famitinib alone period) was 27.121 ng/mL and 34.485 ng/mL and 36.103 ng/mL and 36.767 ng/mL and 33.489 ng/mL and 38.089 ng/mL and 45.213 ng/mL, the “Plasma concentration of famitinib, 8h” value (famitinib alone period) was 23.131 ng/mL and 32.006 ng/mL and 28.312 ng/mL and 40.047 ng/mL and 35.942 ng/mL and 34.604 ng/mL and 44.525 ng/mL and the “Plasma concentration of famitinib, 12h” value (famitinib alone period) was 33.868 ng/mL and 32.063 ng/mL and 29.892 ng/mL and 36.325 ng/mL and 38.189 ng/mL and 26.846 ng/mL and 30.046 ng/mL and 32.411 ng/mL and 29.990 ng/mL and 28.697 ng/mL and 22.626 ng/mL and 21.253 ng/mL and 29.809 ng/mL and 27.794 ng/mL and 35.209 ng/mL and 22.673 ng/mL and 25.658 ng/mL and 31.489 ng/mL and 20.180 ng/mL and 25.649 ng/mL. The “Plasma concentration of famitinib, 24h” value (famitinib alone period) was 22.869 ng/mL and 18.719 ng/mL and 18.827 ng/mL and 23.343 ng/mL and 22.964 ng/mL and 18.391 ng/mL and 23.365 ng/mL and 22.823 ng/mL and 20.812 ng/mL and 16.996 ng/mL and 13.694 ng/mL and 14.316 ng/mL and 17.298 ng/mL and 17.947 ng/mL and 23.155 ng/mL and 17.159 ng/mL and 16.424 ng/mL and 22.872 ng/mL and 15.646 ng/mL and 18.793 ng/mL, the “Plasma concentration of famitinib, 48h” value (famitinib alone period) was 9.513 ng/mL and 8.254 ng/mL and 8.105 ng/mL and 11.504 ng/mL and 11.192 ng/mL and 9.732 ng/mL and 11.197 ng/mL and 12.102 ng/mL and 11.799 ng/mL and 7.958 ng/mL and 6.357 ng/mL and 6.794 ng/mL and 7.622 ng/mL and 7.660 ng/mL and 12.046 ng/mL and 10.239 ng/mL and 9.122 ng/mL and 12.117 ng/mL and 10.002 ng/mL and 10.356 ng/mL and the “Plasma concentration of famitinib, 72h” value (famitinib alone period) was 3.686 ng/mL and 4.390 ng/mL and 3.971 ng/mL and 3.582 ng/mL and 6.835 ng/mL and 5.985 ng/mL and 5.799 ng/mL and 6.271 ng/mL and 7.017 ng/mL and 6.466 ng/mL and 4.181 ng/mL and 2.677 ng/mL and 3.396 ng/mL and 3.152 ng/mL and 3.579 ng/mL and 6.840 ng/mL and 6.734 ng/mL and 4.933 ng/mL and 5.444 ng/mL and 5.401 ng/mL and 5.502 ng/mL. For the same molecule, the “Plasma concentration of famitinib, 96h” value (famitinib alone period) was 2.365 ng/mL and 2.387 ng/mL and 1.873 ng/mL and 1.665 ng/mL and 3.753 ng/mL and 3.141 ng/mL and 2.824 ng/mL and 3.335 ng/mL and 4.484 ng/mL and 3.258 ng/mL and 2.306 ng/mL and 1.285 ng/mL and 1.650 ng/mL and 1.224 ng/mL and 1.587 ng/mL and 3.633 ng/mL and 3.718 ng/mL and 2.477 ng/mL and 3.253 ng/mL and 3.695 ng/mL and 3.276 ng/mL, the “Plasma concentration of famitinib, 144h” value (famitinib alone period) was 0.893 ng/mL and 0.785 ng/mL and 0.595 ng/mL and 0.455 ng/mL and 1.139 ng/mL and 1.206 ng/mL and 1.138 ng/mL and 1.141 ng/mL and 1.626 ng/mL and 1.491 ng/mL and 0.727 ng/mL and 0.432 ng/mL and 0.652 ng/mL and 0.295 ng/mL and 0.483 ng/mL and 1.580 ng/mL and 1.789 ng/mL and 0.934 ng/mL and 1.050 ng/mL and 1.762 ng/mL and 1.408 ng/mL and the “Plasma concentration of famitinib, 192h” value (famitinib alone period) was 0.339 ng/mL and 0.310 ng/mL and 0.302 ng/mL and 0.177 ng/mL and 0.295 ng/mL and 0.575 ng/mL and 0.524 ng/mL and 0.462 ng/mL and 0.706 ng/mL and 0.718 ng/mL and 0.307 ng/mL and 0.155 ng/mL and 0.242 ng/mL and 0.098 ng/mL and 0.650 ng/mL and 0.830 ng/mL and 0.363 ng/mL and 0.410 ng/mL and 0.781 ng/mL and 0.642 ng/mL.
